According to patent publication US20160346305A1, “SWEETENER COMPOSITION FOR PREVENTING AND IMPROVING OBESITY, CONTAINING GLYCOLYSIS INHIBITOR INGREDIENT” (CJ CHEILJEDANG CORPORATION, priority 2011, published 2016):

Experiments:
[1] = known from background; cited from earlier work
[2] = Relative sweetness compared with sugar; conditions: sugar = 1

| Compound | Sweetness relative to sugar (sucrose) [1] | Relative Sweetness per g of raw material [2] |
| --- | --- | --- |
| O=C(CO)[C@@H](O)[C@@H](O)[C@H](O)CO [Tagatose] | about 90% | 0.92 |
| O=C[C@H](O)[C@@H](O)[C@H](O)CO [Xylose] | about 40% |  |
| Sugar [reference compound] |  | 1 |
